Among the data in paper PMC5476800 are binding values, retold here.

Protein sequences, listed by entry. Tags and fused reporters are not part of them.
UniProt Q9Z207: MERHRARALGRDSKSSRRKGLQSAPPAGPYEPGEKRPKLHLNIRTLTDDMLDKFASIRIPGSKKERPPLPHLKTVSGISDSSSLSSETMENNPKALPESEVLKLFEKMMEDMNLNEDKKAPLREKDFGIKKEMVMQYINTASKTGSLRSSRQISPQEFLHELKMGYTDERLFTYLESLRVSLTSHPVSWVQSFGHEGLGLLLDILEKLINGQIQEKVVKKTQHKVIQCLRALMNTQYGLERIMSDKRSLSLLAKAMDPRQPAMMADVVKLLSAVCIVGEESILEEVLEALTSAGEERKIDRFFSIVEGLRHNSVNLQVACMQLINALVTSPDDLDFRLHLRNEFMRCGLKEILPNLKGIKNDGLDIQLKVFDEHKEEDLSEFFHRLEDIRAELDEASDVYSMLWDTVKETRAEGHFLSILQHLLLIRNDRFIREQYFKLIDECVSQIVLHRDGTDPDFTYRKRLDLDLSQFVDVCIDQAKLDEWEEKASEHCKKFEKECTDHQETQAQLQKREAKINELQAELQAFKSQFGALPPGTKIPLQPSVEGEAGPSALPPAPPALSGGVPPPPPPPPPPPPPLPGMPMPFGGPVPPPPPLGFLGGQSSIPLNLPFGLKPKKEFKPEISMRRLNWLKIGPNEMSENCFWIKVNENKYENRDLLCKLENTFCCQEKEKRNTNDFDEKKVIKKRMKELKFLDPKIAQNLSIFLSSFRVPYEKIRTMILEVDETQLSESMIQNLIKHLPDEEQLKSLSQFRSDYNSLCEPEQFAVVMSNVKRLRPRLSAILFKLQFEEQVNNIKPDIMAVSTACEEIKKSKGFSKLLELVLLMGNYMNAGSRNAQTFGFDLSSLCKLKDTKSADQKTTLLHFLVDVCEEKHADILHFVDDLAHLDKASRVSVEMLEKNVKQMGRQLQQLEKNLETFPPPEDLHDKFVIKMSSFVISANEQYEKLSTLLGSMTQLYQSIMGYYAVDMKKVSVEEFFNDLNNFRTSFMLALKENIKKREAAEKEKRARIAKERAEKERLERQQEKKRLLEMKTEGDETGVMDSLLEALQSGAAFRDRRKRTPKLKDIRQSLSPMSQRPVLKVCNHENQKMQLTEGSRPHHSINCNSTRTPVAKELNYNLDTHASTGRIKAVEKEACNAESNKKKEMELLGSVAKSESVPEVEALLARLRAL
UniProt Q9Z1S0: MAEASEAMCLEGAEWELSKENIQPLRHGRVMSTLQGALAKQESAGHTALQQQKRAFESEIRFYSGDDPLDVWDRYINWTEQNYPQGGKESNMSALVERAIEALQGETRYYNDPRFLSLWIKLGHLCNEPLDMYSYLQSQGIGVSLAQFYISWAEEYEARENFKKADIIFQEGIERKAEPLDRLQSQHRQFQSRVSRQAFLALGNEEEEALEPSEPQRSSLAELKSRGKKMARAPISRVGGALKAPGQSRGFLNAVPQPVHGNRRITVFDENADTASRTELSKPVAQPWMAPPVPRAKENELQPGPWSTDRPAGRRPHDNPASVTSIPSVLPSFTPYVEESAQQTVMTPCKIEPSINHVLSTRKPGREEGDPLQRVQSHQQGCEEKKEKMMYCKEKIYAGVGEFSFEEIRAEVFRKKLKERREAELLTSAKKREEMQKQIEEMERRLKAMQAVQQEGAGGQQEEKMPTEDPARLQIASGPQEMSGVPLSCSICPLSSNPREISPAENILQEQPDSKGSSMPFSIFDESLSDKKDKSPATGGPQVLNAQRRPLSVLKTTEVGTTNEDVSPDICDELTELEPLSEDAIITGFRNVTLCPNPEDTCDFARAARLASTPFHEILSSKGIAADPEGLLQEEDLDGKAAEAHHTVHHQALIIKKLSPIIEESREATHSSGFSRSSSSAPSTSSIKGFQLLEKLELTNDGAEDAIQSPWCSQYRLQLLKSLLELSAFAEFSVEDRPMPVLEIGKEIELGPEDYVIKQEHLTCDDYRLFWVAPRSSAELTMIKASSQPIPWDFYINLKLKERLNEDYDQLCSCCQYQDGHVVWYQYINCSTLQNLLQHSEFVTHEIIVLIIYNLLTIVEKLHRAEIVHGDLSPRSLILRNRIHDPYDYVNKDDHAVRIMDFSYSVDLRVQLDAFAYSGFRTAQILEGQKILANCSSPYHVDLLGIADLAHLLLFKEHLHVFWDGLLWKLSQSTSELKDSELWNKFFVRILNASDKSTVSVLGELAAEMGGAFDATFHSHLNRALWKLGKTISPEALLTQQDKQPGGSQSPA
UniProt O70201: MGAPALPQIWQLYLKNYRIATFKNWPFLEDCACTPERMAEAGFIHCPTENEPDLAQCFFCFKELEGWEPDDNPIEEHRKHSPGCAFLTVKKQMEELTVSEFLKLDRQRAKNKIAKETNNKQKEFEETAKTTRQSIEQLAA

No constants are given. Whether binding was seen depends on the method and setting. In cells and extracts the contact can be indirect. Some binding calls cover weakened binding; strength is not graded here.

In the assay the target is Diaph3 (mouse (in brain of Diaph3 transgenic mice)) (UniProt Q9Z207). Nature of the assay: co-IP; 200 ug of brain (Survivin) or cortical (BubR1) lysate of Diaph3 transgenic mice incubated overnight with 5 ug rabbit anti-Diaph3 antibody in lysis buffer (50 mM Tris HCl pH 7.5, 150 mM NaCl, 1 mM EDTA, 1% Triton X-100); protein A agarose beads 2 h at 4 C; washed three times in PBS; western blot; control without antibody. A general note: Immunoblotting shows a protein as a band on a membrane.

For BubR1 (from UniProt Q9Z1S0 1-1052), the binding entry is reported as “binds”.

Turning to Survivin (from UniProt O70201 1-140), the binding entry is on record as “binds”.
